{"source": "paper PMC7744550", "about": "“Structurally distinct telomere-binding proteins in Ustilago maydis execute non-overlapping functions in telomere replication, recombination, and protection”", "key": {"[1]": {"target": "T1, Tay1-FG (Ustilago maydis) (UniProt A0A0D1CTG7)", "T1 sequence (looked up, limits assumed)": "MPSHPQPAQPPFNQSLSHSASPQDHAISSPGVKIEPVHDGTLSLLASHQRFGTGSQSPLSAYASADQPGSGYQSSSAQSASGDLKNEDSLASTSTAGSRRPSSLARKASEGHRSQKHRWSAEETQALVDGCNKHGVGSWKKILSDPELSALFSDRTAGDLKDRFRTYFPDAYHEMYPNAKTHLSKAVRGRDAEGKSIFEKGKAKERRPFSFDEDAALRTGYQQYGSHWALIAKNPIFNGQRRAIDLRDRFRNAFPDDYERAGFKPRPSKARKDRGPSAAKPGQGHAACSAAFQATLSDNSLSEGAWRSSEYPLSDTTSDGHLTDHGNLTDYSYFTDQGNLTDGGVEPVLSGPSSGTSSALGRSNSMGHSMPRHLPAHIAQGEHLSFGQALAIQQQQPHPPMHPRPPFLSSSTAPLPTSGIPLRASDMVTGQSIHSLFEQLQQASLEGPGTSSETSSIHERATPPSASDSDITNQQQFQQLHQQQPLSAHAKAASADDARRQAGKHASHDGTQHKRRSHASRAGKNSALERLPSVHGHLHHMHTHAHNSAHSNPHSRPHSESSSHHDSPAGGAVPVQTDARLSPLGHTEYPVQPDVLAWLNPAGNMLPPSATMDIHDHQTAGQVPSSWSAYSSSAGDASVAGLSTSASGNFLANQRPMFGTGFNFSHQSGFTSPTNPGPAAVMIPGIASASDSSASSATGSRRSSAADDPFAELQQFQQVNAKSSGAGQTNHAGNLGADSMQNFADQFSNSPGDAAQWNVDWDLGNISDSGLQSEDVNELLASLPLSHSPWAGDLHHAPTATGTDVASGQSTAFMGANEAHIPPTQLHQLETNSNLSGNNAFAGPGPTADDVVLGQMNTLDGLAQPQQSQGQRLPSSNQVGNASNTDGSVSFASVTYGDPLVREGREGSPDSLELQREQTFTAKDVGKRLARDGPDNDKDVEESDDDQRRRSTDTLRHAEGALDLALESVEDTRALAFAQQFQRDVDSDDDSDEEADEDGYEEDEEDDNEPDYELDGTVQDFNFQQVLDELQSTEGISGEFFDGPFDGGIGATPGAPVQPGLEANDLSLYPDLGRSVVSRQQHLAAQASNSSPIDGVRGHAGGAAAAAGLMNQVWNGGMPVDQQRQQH", "assay": "EMSA", "conditions": "5 nM probe; 25 mM HEPES-KOH pH 7.5, 5% glycerol, 3 mM MgCl2, 0.1 mM EDTA, 1 mM DTT, 0.5 µg/µl BSA, 1-10 nM 32P probe, 22 °C 15 min; 6% native PAGE in 0.2x TBE; recombinant protein; protein details: C-terminal FLAG (His-SUMO cleaved by ULP1); label: 32P"}, "[2]": {"target": "T2, Trf2∆N-FG3 (Ustilago maydis) (UniProt A0A0D1E1Z3)", "T2 sequence (looked up)": "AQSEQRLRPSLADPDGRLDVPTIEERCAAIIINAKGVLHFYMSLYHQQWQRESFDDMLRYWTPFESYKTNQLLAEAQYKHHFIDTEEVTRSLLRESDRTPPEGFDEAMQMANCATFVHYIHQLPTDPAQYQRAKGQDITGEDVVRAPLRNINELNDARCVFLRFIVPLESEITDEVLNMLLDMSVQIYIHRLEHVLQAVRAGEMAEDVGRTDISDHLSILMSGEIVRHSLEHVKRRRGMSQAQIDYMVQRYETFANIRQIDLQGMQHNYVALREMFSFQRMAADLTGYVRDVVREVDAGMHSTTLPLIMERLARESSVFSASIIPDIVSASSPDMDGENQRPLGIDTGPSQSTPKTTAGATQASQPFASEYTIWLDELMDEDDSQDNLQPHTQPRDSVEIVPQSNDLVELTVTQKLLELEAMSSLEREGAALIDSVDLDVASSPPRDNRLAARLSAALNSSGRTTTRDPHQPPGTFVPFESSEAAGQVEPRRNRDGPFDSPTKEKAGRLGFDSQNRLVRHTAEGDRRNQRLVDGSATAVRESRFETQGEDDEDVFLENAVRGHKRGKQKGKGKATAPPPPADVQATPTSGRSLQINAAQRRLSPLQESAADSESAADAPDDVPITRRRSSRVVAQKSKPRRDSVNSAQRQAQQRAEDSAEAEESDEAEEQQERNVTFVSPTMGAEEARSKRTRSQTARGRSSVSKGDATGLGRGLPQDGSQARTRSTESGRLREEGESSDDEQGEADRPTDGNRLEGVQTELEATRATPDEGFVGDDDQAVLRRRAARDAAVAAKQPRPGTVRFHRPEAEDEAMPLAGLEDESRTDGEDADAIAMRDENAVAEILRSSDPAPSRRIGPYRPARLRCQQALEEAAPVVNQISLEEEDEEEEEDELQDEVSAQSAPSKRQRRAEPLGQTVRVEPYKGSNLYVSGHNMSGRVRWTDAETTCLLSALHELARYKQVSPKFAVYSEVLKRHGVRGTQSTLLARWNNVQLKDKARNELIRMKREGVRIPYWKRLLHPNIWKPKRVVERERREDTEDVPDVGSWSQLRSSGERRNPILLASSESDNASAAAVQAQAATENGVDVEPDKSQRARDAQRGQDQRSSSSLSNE", "assay": "EMSA", "conditions": "25 mM HEPES-KOH pH 7.5, 5% glycerol, 3 mM MgCl2, 0.1 mM EDTA, 1 mM DTT, 0.5 µg/µl BSA, 1-10 nM 32P probe, 22 °C 15 min; 6% native PAGE in 0.2x TBE; recombinant protein; residues 416-1528; protein details: C-terminal FG3 (His-SUMO cleaved by ULP1); label: 32P"}, "[3]": {"target": "T2, Trf2∆N-FG3 (Ustilago maydis)", "assay": "competition with a labelled probe", "conditions": "unlabeled competitor, 25 mM HEPES-KOH pH 7.5, 5% glycerol, 3 mM MgCl2, 0.1 mM EDTA, 1 mM DTT, 0.5 µg/µl BSA, 1-10 nM 32P probe, 22 °C 15 min, 6% native PAGE in 0.2x TBE, recombinant protein, residues 416-1528, protein details: C-terminal FG3 (His-SUMO cleaved by ULP1)"}, "[4]": {"target": "T1, Tay1-FG (Ustilago maydis)", "assay": "competition with a labelled probe", "conditions": "unlabeled competitor, 25 mM HEPES-KOH pH 7.5, 5% glycerol, 3 mM MgCl2, 0.1 mM EDTA, 1 mM DTT, 0.5 µg/µl BSA, 1-10 nM 32P probe, 22 °C 15 min, 6% native PAGE in 0.2x TBE, recombinant protein, protein details: C-terminal FLAG (His-SUMO cleaved by ULP1)"}, "[5]": {"target": "T3, Trf2-TRFH(416-1349) (Ustilago maydis) (UniProt A0A0D1E1Z3)", "T3 sequence (looked up)": "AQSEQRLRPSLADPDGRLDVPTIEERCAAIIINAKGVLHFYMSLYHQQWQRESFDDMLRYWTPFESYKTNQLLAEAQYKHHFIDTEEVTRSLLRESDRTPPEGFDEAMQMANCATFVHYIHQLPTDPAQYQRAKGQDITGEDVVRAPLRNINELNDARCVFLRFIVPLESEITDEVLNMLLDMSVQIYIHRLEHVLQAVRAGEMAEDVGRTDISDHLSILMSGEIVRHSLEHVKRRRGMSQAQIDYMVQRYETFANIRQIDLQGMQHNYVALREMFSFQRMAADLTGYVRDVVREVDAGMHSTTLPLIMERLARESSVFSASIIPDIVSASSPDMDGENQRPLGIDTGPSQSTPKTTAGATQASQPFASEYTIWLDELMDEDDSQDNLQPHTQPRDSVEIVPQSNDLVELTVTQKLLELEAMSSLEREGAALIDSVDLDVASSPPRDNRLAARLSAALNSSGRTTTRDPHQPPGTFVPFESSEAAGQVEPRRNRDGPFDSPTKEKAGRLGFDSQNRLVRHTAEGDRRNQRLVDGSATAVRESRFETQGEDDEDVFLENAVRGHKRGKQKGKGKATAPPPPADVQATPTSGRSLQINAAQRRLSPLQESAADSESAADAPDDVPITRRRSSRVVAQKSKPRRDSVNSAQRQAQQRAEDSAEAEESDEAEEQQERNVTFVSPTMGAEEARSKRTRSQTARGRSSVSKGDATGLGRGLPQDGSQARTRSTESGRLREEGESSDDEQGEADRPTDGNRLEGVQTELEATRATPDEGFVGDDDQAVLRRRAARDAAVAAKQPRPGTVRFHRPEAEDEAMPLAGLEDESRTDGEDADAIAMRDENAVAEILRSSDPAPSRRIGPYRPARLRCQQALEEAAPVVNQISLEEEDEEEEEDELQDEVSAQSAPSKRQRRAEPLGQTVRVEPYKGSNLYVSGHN", "assay": "EMSA", "conditions": "25 mM HEPES-KOH pH 7.5, 5% glycerol, 3 mM MgCl2, 0.1 mM EDTA, 1 mM DTT, 0.5 µg/µl BSA, 1-10 nM 32P probe, 22 °C 15 min; 6% native PAGE in 0.2x TBE; recombinant protein; residues 416-1349; protein details: C-terminal FLAG (His-SUMO cleaved by ULP1); label: 32P (as probe)"}, "[6]": {"target": "T4, Trf2-Myb(1350-1528) (Ustilago maydis) (UniProt A0A0D1E1Z3)", "T4 sequence (looked up)": "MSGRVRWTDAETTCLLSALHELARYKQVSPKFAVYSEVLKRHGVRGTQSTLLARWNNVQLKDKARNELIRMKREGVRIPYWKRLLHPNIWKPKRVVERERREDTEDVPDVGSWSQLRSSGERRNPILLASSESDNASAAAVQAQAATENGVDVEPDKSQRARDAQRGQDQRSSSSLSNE", "assay": "EMSA", "conditions": "25 mM HEPES-KOH pH 7.5, 5% glycerol, 3 mM MgCl2, 0.1 mM EDTA, 1 mM DTT, 0.5 µg/µl BSA, 1-10 nM 32P probe, 22 °C 15 min; 6% native PAGE in 0.2x TBE; recombinant protein; residues 1350-1528; protein details: C-terminal FLAG (His-SUMO cleaved by ULP1); label: 32P (as probe)"}}, "note": "For some of these results: Negatives hold for the conditions tested. For some of these results: At least one verdict was read from the data and is not stated in words by the source. Where a protein sequence is shown, tags need not be part of it. For some of these results: Weaker means in comparison with the reference protein, sequence or condition of that experiment. For some of these results: For at least one entry, the source does not settle the construct or the ends of the probe.", "data": [{"sequence": "GGTTAGGGTTAG (double strand) [TTAGGG2 ds]", "values": [{"measurement": "binding result", "setting": "[1]", "result": "no binding"}, {"measurement": "binding result", "setting": "[2]", "result": "no binding"}]}, {"sequence": "TGGGGTCTGGGTGCTG (double strand) [CgTEL]", "values": [{"measurement": "binding result", "setting": "[3]; \"just like Tay1\"", "result": "no binding"}]}, {"sequence": "TTAGGGTTAGGGTTAG (double strand) [TTAGGG2.5 ds]", "values": [{"measurement": "binding result", "setting": "[1]", "result": "binds more weakly"}, {"measurement": "binding result", "setting": "[2]", "result": "binds more weakly"}]}, {"sequence": "TTAGGGTTAGGGTTAGGGTTAG (double strand) [TTAGGG3.5 ds]", "values": [{"measurement": "binding result", "setting": "[1]", "result": "binds"}, {"measurement": "binding result", "setting": "[2]", "result": "binds"}]}, {"sequence": "TTAGGGTTAGGGTTAGGGTTAGGG (double strand) [TTAGGG4 ds]", "values": [{"measurement": "binding result", "setting": "[4]; label: 32P (as probe)", "result": "binds"}, {"measurement": "binding result", "setting": "[3]; label: 32P (as probe)", "result": "binds"}, {"measurement": "binding result", "setting": "[5]", "result": "no binding"}, {"measurement": "binding result", "setting": "[6]", "result": "binds more weakly"}]}, {"sequence": "TTAGTCAGGGTTAGTCAGGGTTAGT (double strand) [YlTEL]", "values": [{"measurement": "binding result", "setting": "[4]; slightly less active than TTAGGG4", "result": "binds more weakly"}, {"measurement": "binding result", "setting": "[3]", "result": "binds"}]}]}
